Record: PubChem BioAssay AID1259405 (NCATS, 2018)

- Test: 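Silenced genes that increase secreted GFP made by CHO cells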 (primary screen)
- Cells: Chinese hamster CHO-K1 ovary cells with stable secreted eGFP expression
- Knock-down reagent: single siRNA against mouse genes, 0.8 pmol siRNA per well (2 µl of 400 nM stock)
- Duration: 3 days
- Measurement: 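Percent of the per-plate non-targeting control median for intracellular GFP per well by laser scanning cytometry and for cell viability by ATP luminescence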
- Scale: GFP, % of control: higher = more GFP per well, higher productivity; viability (ATP), % of control: higher = more viable cells (more ATP)
- Call rule: 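Called active when intracellular GFP, relative to negative control, is at or above 120%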
Shown is one part, drawn at random, of about 50,000 reagents tested. Over the whole deposit, about 4,000 (8%) were called active. 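Mouse siRNA library applied to hamster cells; one well for each siRNA.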 Reagents against one gene are numbered here.

Cyp2g1 #1 scored GFP, % of control 62.7; viability (ATP), % of control 57; inactive. Knock-down of Cyp2g1 #2 gave: GFP, % of control 96.1; viability (ATP), % of control 45.9; inactive. Silencing of Cyp2g1 #3 resulted in: GFP, % of control 102; viability (ATP), % of control 80.2; inactive. After knock-down of Egln2 #1, the record shows GFP, % of control 50; viability (ATP), % of control 40.4; inactive. For Egln2 #2, the entry reads GFP, % of control 84.1; viability (ATP), % of control 83.2; inactive. Egln2 #3 showed GFP, % of control 47.1; viability (ATP), % of control 74.5; inactive.

With knock-down of Nipbl #1, the screen gave GFP, % of control 236; viability (ATP), % of control 152; active. With knock-down of Nipbl #2, the record shows GFP, % of control 62.6; viability (ATP), % of control 50.2; inactive. Nipbl #3 gave GFP, % of control 63; viability (ATP), % of control 73.4; inactive. Knock-down of Nipbl #4 gave: GFP, % of control 83.2; viability (ATP), % of control 85; inactive. With knock-down of Nipbl #5, the screen gave GFP, % of control 120; viability (ATP), % of control 74.2; active. Nipbl #6 scored GFP, % of control 91.3; viability (ATP), % of control 88; inactive.

Knock-down of Kcnmb4 #1 came out at: GFP, % of control 53.1; viability (ATP), % of control 56.2; inactive. Kcnmb4 #2 showed GFP, % of control 74.9; viability (ATP), % of control 74.2; inactive. With knock-down of Kcnmb4 #3, the screen gave GFP, % of control 68.7; viability (ATP), % of control 91.3; inactive. Against Or7g18 #1, the values are GFP, % of control 62; viability (ATP), % of control 51.6; inactive. For Or7g18 #2, the values are GFP, % of control 92.3; viability (ATP), % of control 97.9; inactive. After knock-down of Or7g18 #3, the screen gave GFP, % of control 58.7; viability (ATP), % of control 73.9; inactive.

Single entries from the list.
Result of Or7g18 #3 in “GFP, % of control”: 58.7
Nipbl #3, GFP, % of control → 63
